According to patent US6841560B2, “Substituted isoquinoline derivatives and their use as anticonvulsants” (SmithKline Beecham p.l.c., priority 1997, dated 2005):
Some of these results come from one statement about several compounds together.

Target: novel receptor obtainable from rat forebrain tissue
Test: Radioligand binding assay, displacement of [3H]-Compound A from rat forebrain tissue
Details: competition with [3H]-Compound A (usually 20 nM), room temperature, 1 hour

Compound	pKi
O=C(Nc1ccc2c(c1)CNCC2)c1ccc(Cl)s1.O=C(O)C(F)(F)F [Example 1, N-(1,2,3,4-Tetrahydroisoquinolin-7-yl)-5-chlorothiophene-2-carboxamide, monotrifluoroacetate]	greater than 7
CN1CCc2ccc(NC(=O)c3cccc(Cl)c3)cc2C1 [Example 4, N-(2-Methyl-1,2,3,4-tetrahydroisoquinolin-7-yl)-3-chlorobenzamide]	greater than 7
Cc1cccc(C(=O)Nc2ccc3c(c2)CN(C)CC3)c1 [Example 10, N-(2-Methyl-1,2,3,4-tetrahydroisoquinolin-7-yl)-3-methylbenzamide]	greater than 7
CN1CCc2ccc(NC(=O)c3ccc(Cl)c(Cl)c3)cc2C1 [Example 13, N-(2-Methyl-1,2,3,4-tetrahydroisoquinolin-7-yl)-3,4-dichlorobenzamide]	greater than 7
